# Data as given in PubChem BioAssay AID504764 (Drosophila RNAi Screening Center, 2011)
# Test: 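Genes whose knock-down alters Notch-dependent transcription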 (primary screen)
# Cells: Drosophila Kc167 cells
# Knock-down reagent: long dsRNA against Drosophila genes
# Time to read-out: about 5 days (4 days dsRNA, then 24 h after transfection)
# Conditions: transfection of constitutively active membrane-tethered Notch lacking the extracellular domain, read 24 h later
# Measured: 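Firefly luciferase from an E(spl)m3 reporter with active Notch, plus control-promoter and uninduced reporter wells for normalisation; unnormalised counts, duplicate wells a and b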
# Scale: induced reporter light, run 1, well a and induced reporter light, run 1, well b: higher = more light from the Notch target reporter with active Notch; control promoter light, run 1, well a and control promoter light, run 1, well b: higher = more light from the viral control promoter (cell number, transfection, viability); uninduced reporter light, run 1, well a: higher = more light from the Notch target reporter without active Notch
# Rule for the call: 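Hit if the duplicate-averaged log2 ratio of induced to control-promoter light gives a plate-wise z beyond ±2, or induced to uninduced beyond ±1.8; weak-control or discordant-duplicate wells dropped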
# Meaning of the calls: active = modifier hit (raised or lowered Notch signal); inactive = not a hit
# The screen tested about 22,000 reagents; below is an unselected part of those that have a named target and a result. Over the whole deposit, 403 (1.9%) are marked active. 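Unnormalised raw counts per well; ratio z-scores behind the hit calls and whether each hit raises or lowers signal are not deposited.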 Reagents against one gene are numbered here. A plus sign joins genes that one reagent is predicted to hit. The record does not give: the amount of reagent.
Gene,reagent,"induced reporter light, run 1, well a","induced reporter light, run 1, well b","control promoter light, run 1, well a","control promoter light, run 1, well b","uninduced reporter light, run 1, well a",call
CG1092,1,1.06e5,1.36e5,63270,77405,8690,inactive
dsx (doublesex),1,1.56e5,1.40e5,1.55e5,1.23e5,10485,inactive
dsx (doublesex),2,1.63e5,2.06e5,1.45e5,1.26e5,12245,inactive
Syn2 (Syntrophin-like 2),1,1.63e5,1.20e5,1.43e5,1.59e5,13000,inactive
CG11192,1,47155,32975,40660,44120,5720,inactive
CG13358,1,1.05e5,1.05e5,1.74e5,2.06e5,8965,inactive
RIOK1 (RIO kinase 1),1,1.38e5,1.21e5,1.03e5,48120,11140,inactive
CG1602,1,2.11e5,1.81e5,2.31e5,1.99e5,16610,inactive
CG18631 (retired record),1,44685,39235,42445,45940,4295,inactive
jdp,1,64785,70820,79125,62760,4855,inactive
CG13795,1,95550,1.29e5,97540,1.22e5,18215,inactive
GEFmeso (Guanine nucleotide exchange factor in mesoderm),1,90485,81390,1.42e5,1.89e5,7860,inactive
GEFmeso (Guanine nucleotide exchange factor in mesoderm),2,39685,39425,45275,38450,5645,inactive
mRpL10 (mitochondrial ribosomal protein L10),1,1.18e5,1.80e5,2.19e5,2.45e5,9535,active
"Gmer (GDP-4-keto-6-deoxy-D-mannose 3,5-epimerase/4-reductase)",1,1.79e5,1.86e5,2.03e5,1.94e5,15820,inactive
swa (swallow),1,2.18e5,1.79e5,2.32e5,2.27e5,15675,inactive
meso18E,1,55680,63365,70480,75600,8445,inactive
Vhl (von Hippel-Lindau),1,1.01e5,1.08e5,1.60e5,1.55e5,7870,inactive
CG33459,1,95155,82495,1.29e5,1.25e5,7275,inactive
dpp (decapentaplegic),1,1.41e5,1.12e5,1.87e5,2.18e5,9425,inactive
dpp (decapentaplegic),2,1.20e5,1.10e5,1.39e5,1.72e5,8182,inactive
dpp (decapentaplegic),3,1.36e5,1.04e5,98970,61265,9545,inactive
Lcp65Ab2 + Lcp65Ab1,1,1.62e5,1.23e5,1.48e5,1.16e5,6475,inactive
Lcp65Ab2 + Lcp65Ab1,2,2.50e5,2.39e5,2.46e5,2.37e5,11485,inactive
pkaap,1,1.17e5,1.34e5,1.37e5,1.59e5,10455,inactive
CG8301,1,75205,65390,48100,42850,7040,inactive
CG34229,1,1.27e5,1.23e5,1.37e5,1.27e5,11350,inactive
GlyRS (Glycyl-tRNA synthetase),1,67135,57185,45160,42290,5712,inactive
CG13287,1,1.62e5,1.45e5,2.44e5,1.91e5,9742,inactive
CG6878,1,87545,69740,1.18e5,88820,6420,inactive
Hr3 (Hormone receptor 3),1,16955,16225,25160,24100,4630,inactive
Hr3 (Hormone receptor 3),2,2.04e5,1.99e5,1.43e5,1.51e5,14805,inactive
CG42327,1,61080,62255,45310,41465,3250,inactive
CG42327,2,1.11e5,1.03e5,1.49e5,1.38e5,7940,inactive
croc (crocodile),1,1.46e5,1.14e5,1.15e5,99175,9675,inactive
Ktch (Ketchup),1,1.08e5,1.21e5,1.79e5,1.79e5,9700,inactive
bin3 (bicoid-interacting protein 3),1,1.75e5,1.18e5,1.49e5,1.53e5,12785,active
Pld3 (Phospholipase D family member 3),1,1.67e5,2.30e5,1.75e5,2.23e5,15050,inactive
Tdrd3 (Tudor domain containing 3),1,1.85e5,1.46e5,2.46e5,1.60e5,6105,inactive
mof (males absent on the first),1,1.31e5,1.21e5,2.13e5,2.40e5,10720,inactive
Eip74EF (Ecdysone-induced protein 74EF),1,5950,5220,3760,3090,2510,inactive
Eip74EF (Ecdysone-induced protein 74EF),2,95010,80170,1.19e5,99305,4860,inactive
Acox57D-p (acyl-Coenzyme A oxidase at 57D proximal),1,82120,63505,55550,50385,4875,inactive
CG31029,1,1.12e5,1.12e5,2.09e5,1.98e5,10825,inactive
CG4332,1,1.20e5,1.32e5,1.01e5,1.14e5,6370,inactive
Fdx1 (Ferredoxin 1),1,2.35e5,1.76e5,2.62e5,2.28e5,13240,inactive
CG9132,1,1.80e5,1.58e5,1.59e5,1.36e5,12390,inactive
CG3744,1,1.63e5,1.34e5,2.20e5,1.85e5,11375,inactive
eIF3f1 (eukaryotic translation initiation factor 3 subunit f1),1,23285,17095,21115,22115,2028,inactive
EMC10 (ER membrane protein complex subunit 10),1,92295,1.39e5,99995,1.02e5,8078,inactive
nmd (no mitochondrial derivative),1,1.88e5,1.89e5,1.71e5,1.67e5,16370,inactive
yellow-e3,1,3.02e5,2.72e5,2.25e5,2.23e5,19775,inactive
sns (sticks and stones),1,6795,6088,9380,7910,1975,inactive
sns (sticks and stones),2,1.28e5,1.29e5,1.83e5,1.79e5,10395,inactive
sns (sticks and stones),3,2.31e5,1.72e5,2.64e5,2.49e5,15285,inactive
sns (sticks and stones),4,1.28e5,1.63e5,1.93e5,1.58e5,14330,inactive
sns (sticks and stones),5,1.69e5,1.77e5,1.61e5,1.80e5,15840,inactive
sns (sticks and stones),6,27195,21700,25075,24310,5640,inactive
CG14767,1,1.78e5,1.56e5,1.50e5,1.53e5,18540,inactive
rpk (ripped pocket),1,1.29e5,1.17e5,93945,1.23e5,8932,inactive
Fkbp12 (FK506-binding protein 12kD),1,1.16e5,1.03e5,1.38e5,1.41e5,9305,inactive
CG32109,1,1.20e5,1.26e5,2.08e5,1.75e5,8125,inactive
CG11417,1,1.58e5,1.55e5,2.02e5,2.25e5,7910,inactive
CCDC53 (Coiled-coil domain containing 53),1,1.40e5,1.60e5,89995,1.20e5,19205,inactive
